Assay results reported in the supplement of paper PMC5949888.
Most values lie at the floor of the assay. Slopes are relative: functional sequences can read slightly below zero.

system: Saccharomyces cerevisiae PS128 hsf1 delta, HSF1(1-493) fusion; test: growth estimate (transactivation domain function in HSF1 fusion, heat-shock survival) (a.u. (slope of normalised read count over time)); higher = stronger growth at 37°C, i.e. more transactivation activity; details: library: random library

Substance | growth estimate
RVNIYLCDRLWEFTLGMLLA | < -0.25
VNLLRNLSPSS | < -0.25
TYDGVSRVGTQTSTLWKIER | < -0.25
CLRNVKHRFEVLVMDKGPAC | < -0.25
QPKQGNGLRVLMGRSTAGFY | < -0.25
GYWEKIGLVI | < -0.25
RESTVYTEFVQYVIGSVHRG | < -0.25
ARRKGAGIIVTGSGRRRTNM | < -0.25
LATSG | < -0.25
HLAYDMCNLGVRLVRGW | < -0.25
SERGYVEVRITYVRPFESS | < -0.25
REHDAVRSHWEQRNRND | < -0.25
LRPKI | -0.246
RLEFRLREMDAIVHSFGIEL | < -0.25
SLFTAERSSVPLFRETI | < -0.25
VKF | < -0.25
LGRGWGATRTRSITMIVSWR | < -0.25
TVEPTRRCYRLFY | < -0.25
TELH | < -0.25
HPYASYQRGVNVWVNRARKR | < -0.25
FSVEF | < -0.25
SLVGVESAFRLCRKLLDVTR | < -0.25
DVREGKGVTNRA | < -0.25

Substance | growth estimate
VRKPAQCG | < -0.25
LFQLTKAQGCVR | < -0.25
VSCARVLNSYGEAGSLTFAR | < -0.25
RGNGGT | < -0.25
RPSRAHG | < -0.25
GLLEALIRYVRFT | < -0.25
VVTAISRSTATILDL | < -0.25
VPRLRCPRFAIR | < -0.25
SMGGPYVM | < -0.25
FRLPATSDYLVVIRSHRPTT | < -0.25
RNAELYPIRIGLPQWGQAHT | < -0.25
RCRRDASSSRVTSWETGIGG | < -0.25
FRGVLGRQPERVSKGKQRRR | < -0.25
KARHSRLCSFHKDRSLTRRG | < -0.25
NGINNSGWIVPEGPIDMFCA | < -0.25
QLEGPYAANVFKDGAQEKGQ | < -0.25
PAGHLGTSPGFSEGGTSWIV | < -0.25
TGLCTWRKT | < -0.25
SILSGYLDAT | < -0.25
CAGNSPGVKRLT | < -0.25
LVISLSP | < -0.25
EKMASICCRG | < -0.25
IMSQRIY | < -0.25

Substance | growth estimate
WLGRRAGSGEVLNGITQLRS | < -0.25
SGPLS | < -0.25
ESILFLHYSRTCVQIQCLAR | < -0.25
GSKARGLFSRVTNRTGARFG | < -0.25
EAFLELN | < -0.25
LSQQARTDVVFTTLSHLKPR | < -0.25
VYH | < -0.25
DGYLSRRPNVSMVTFNLWIH | < -0.25
AYVTGWNDRIRHLLP | < -0.25
SPHIDPFKCRAQSPFAGGIC | < -0.25
RTVCASRCREGFRRFAWMEH | < -0.25
DTLNHAAS | < -0.25
GDFFLK | < -0.25
KLFDRHRFA | < -0.25
SPLTAVVSRSAVDDNLVVQD | < -0.25
PPERSTLRGLWVAPGYPDVA | < -0.25
LFVVSPGPPFLRKVDLHLWA | < -0.25
VTIG | < -0.25
RVWAGLRGARCHEVIKEPLG | < -0.25
VSGTVGTDSRNYRLRDCC | < -0.25
TWWTRCHRCNESEHSPASRS | < -0.25
RSRHWAGMHRLSVTRALDSN | < -0.25
KRRSRACTWKSIKSREQ | < -0.25

A portion from further up, as a working copy:
Substance | growth estimate
ESILFLHYSRTCVQIQCLAR | < -0.25
GSKARGLFSRVTNRTGARFG | < -0.25
EAFLELN | < -0.25
LSQQARTDVVFTTLSHLKPR | < -0.25
VYH | < -0.25

Next entries:

Substance | growth estimate
IINWATGRLSA | < -0.25
LGSKGVR | < -0.25
QARECTGSYCIRAATDRKTH | < -0.25
ILEIAHFAIVCPDNGDRLQR | < -0.25
GAPLGSIQKSAYCNVWKKSG | < -0.25
RIKTVDTVTCIRAVCTT | < -0.25
RSVHT | < -0.25
GRIKRNVSHPPPVKVSAHTP | < -0.25
LVKYEREAHVRCGCLLIYPV | < -0.25
GGARFDEGGNALGNDRV | < -0.25
VLRRQFEFLSRLN | < -0.25
AVLGLPRARCLPPLSES | < -0.25
FIFEVRNQWT | < -0.25
RGIDMRGNETTQKLRPPSRE | < -0.25
DSPESSN | < -0.25
HPMRAR | < -0.25
IPL | < -0.25
ATAIWNC | < -0.25
SSTASGIGTPIQQGEMQPPS | < -0.25
GWVVSQGRGLCAEHSGGVCR | < -0.25
RIRCGPVASKRTAR | < -0.25
WDMSSAY | < -0.25
GRWEVRGIRRTATCCTVSVL | < -0.25

Substance | growth estimate
NIGGHPAHSSTDQFAVSDRY | < -0.25
CEYWSLARRHPRSVTRDGRS | < -0.25
TFNRSNETTRNP | < -0.25
DVGLDLVNVNVQVL | < -0.25
KQKRRPISLCDTQQQPNIDA | < -0.25
YVDTRRSLRGSTRHSHWTPV | < -0.25
SIDVAFSH | < -0.25
GVFSPK | < -0.25
LVIRSMVIFMNRVASQGEKR | < -0.25
MCYSSVDDHILHCSCRRDTA | < -0.25
VAQLRCSVAF | < -0.25
GSGVL | < -0.25
LDCWVRRDNLLIRPWVNRFS | < -0.25
PWDQSYQIHLWRSVQGEPSP | < -0.25
NLQTSRVWRAVELRGYKKV | < -0.25
GRGEACGKAWSGGVATKWGP | < -0.25
RKHSTTEPGDFRRPRHKISI | < -0.25
ARLF | < -0.25
LIRAGVSCNLCYAWPDACPW | < -0.25
NSRRWT | < -0.25
TRSRCPCQTDCGTSWSTRTS | < -0.25
IVKRNKTATRGLQDGPVGMW | < -0.25
GGRVNSRGITVQHTPQHRER | < -0.25

Substance | growth estimate
GGAHELLYMSHGKPM | < -0.25
CQLLNKKVGEMHRGPLSQAP | < -0.25
TGVSAVVTVGAL | < -0.25
SLSNRQYLYL | < -0.25
FHSIRAGHGEVFPGLVLART | < -0.25
IFVWAAWRSKYRTGTFSPPG | < -0.25
FASQRFLPVRGGTNSMWLP | < -0.25
LRRPGEPQESFCTVRFPHPN | < -0.25
TGVVGVLFDADIYGVPNLRC | -0.245
LTRRHLKGPSFVTRNPSQHA | < -0.25
FGCN | < -0.25
RTGARSCCIWTVSRAVDLSP | < -0.25
GPTGLRIRNRGVANPRGQQL | < -0.25
SYSLNCRVVLSLRVSRPEIV | < -0.25
ELVIIRADPATLYVRDLPSR | < -0.25
ITLVIVKLGCLERRISIGRT | < -0.25
PRFK | < -0.25
STSLANCPVGILHGRVVWLR | < -0.25
PRVLYHSFSSGITVILGTGL | < -0.25
EMDCGQDSQGLKSVSW | < -0.25
CVLLSRYKEISQVLLVYMAK | < -0.25
ATTRAARDSEKRRNILVPGC | < -0.25
LFLVYIPRANLWHA | < -0.25

Reformatted comma-delimited: part of the list above
Substance,growth estimate
FASQRFLPVRGGTNSMWLP,< -0.25
TGVVGVLFDADIYGVPNLRC,-0.245
ITLVIVKLGCLERRISIGRT,< -0.25
CVLLSRYKEISQVLLVYMAK,< -0.25

Further results.

Substance | growth estimate
AFPGRTAI | < -0.25
IHDRTECTSRKGGR | < -0.25
AVTMAETHNSN | < -0.25
ENYWGLA | < -0.25
VDHPTTKVRAWRDHPHWATR | < -0.25
QELCSLLLLISNDLGRLFLG | < -0.25
RSVTIWYMQGDADGGRDPDG | < -0.25
RMLYYK | < -0.25
RYSDFARPKG | < -0.25
VNGREPLHR | < -0.25
GGCSPVGGRSASTVPFY | < -0.25
FAAKWQAGFRDKLMPPIYHP | < -0.25
LLIVWPGASAS | < -0.25
DTSYPDWSRRR | < -0.25
RPI | < -0.25
VLLLTSCARNGYQCLDHSSG | < -0.25
LVHLAVWNSEPQGRVHSENR | -0.243
FKGGRGFL | < -0.25
STL | < -0.25
